In US20080020385A1, “Use Of A Genetic Modification In The Human Gnaq Gene For Predicting Risk Of Disease, The Course Of Disease, And Reaction To Treatments” (priority 2004, published 2008):
For at least one compound, name, drawing or mass did not settle the structure. Where no end group is shown, it is not given here.

Tested on: human skin fibroblasts
Assay: Intracellular Ca2+ increase in Fura-2-loaded human skin fibroblasts after hormone stimulation
Assay type: cell-based
Settings: Fura-2, by GC(-909/-908)TT genotype

RPPGFSPFR [bradykinin]
increase of the intracellular Ca2+ concentration: level of the increase of the intracellular Ca^2+ concentration increases as the number of GC alleles increases
